Experimental data from paper PMC10593786.
These are yes or no findings as the source states them, for the method shown.

Amino acid sequences for entries named in this document (tags omitted). A change or cut given only in a name is not applied to a line headed by its entry. Chains listed by the source or under a name are the forms on record and can include a tag or linker. Residues count along the entry.
Myo6 834-955 (Q64331, residues 834-955): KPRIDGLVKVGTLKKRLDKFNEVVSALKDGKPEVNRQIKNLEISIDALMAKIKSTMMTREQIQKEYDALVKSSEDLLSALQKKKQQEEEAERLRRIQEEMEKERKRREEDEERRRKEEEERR
Myo6 875-940 T888D.R892E.V903D (Q64331, form named): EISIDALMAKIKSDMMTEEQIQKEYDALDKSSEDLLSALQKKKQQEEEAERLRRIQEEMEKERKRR

Assays:
[1] = biological target: Myo6 834-955 (mouse) (UniProt Q64331); experiment: SEC-MALS; fragments of the 3HB/SAH junction on Superdex 200 10/300 Increase, 0.5 mL/min; titration; apparent KD, dimer to monomers; both purified
[2] = biological target: Myo6 875-940 T888D.R892E.V903D (mouse) (UniProt Q64331); experiment: SEC-MALS; injection of 50 µL at 10 mg/mL in 10 mM Tris-HCl pH 7.5, 50 mM NaCl, 5 mM NaN3, 0.5 mM TCEP; peak concentration by the in-line refractometer; both purified

Substance	binding [1]	binding [2]
Myo6 834-955 (from UniProt Q64331 834-955) (domain or fragment)	no binding (tested: 30 µM (peak concentration))	–
Myo6 875-940 T888D.R892E.V903D (from UniProt Q64331 875-940) (domain or fragment)	–	no binding (tested: 43 µM (peak concentration))
